Not every detail of the peptide structures is certain; ends, links or a residue may be inferred. Positions of bridges follow the written chain, without caps; N, C: chain ends. Residues, ends and D or L forms follow the SMILES beside them.
Key:
[1] = test system: rhsCD154-induced angiogenesis; experiment: In vivo angiogenesis Matrigel assay with HUVECs in SCID mice; settings: HUVEC with Matrigel and rhsCD154 100 ng/ml subcutaneously in SCID mice, histology
[2] = test system: CD40 stimulation of peripheral B cells by rhsCD154; experiment: rhsCD154-induced B cell activation (CD80 and CD86 membrane expression); assay type: cell-based, human
Procedure: The histograms of 4A show the effect of the anti-CD154 peptides and the control peptide 4.10-ala, on the activation B cells induced by stimulation with a soluble recombinant human CD154 molecule (rhsCD154). B cells were stimulated for 48 hours with rhsCD154 in the absence and in the presence of a blocking anti-human CD154 antibody or one of the seven selected peptides. Peripheral B cell activation was evaluated by flow cytometry, as the membrane expression of the co-stimulatory molecules CD80 and CD86. […] On the contrary, the activation is prevented when rhsCD154 is used in combination with a blocking anti-human CD154 antibody or with peptide 4.10 (SEQ ID NO: 6).
B cells are known to constitutively express the CD40 molecule on the cells membrane (van Kooten C. et al, J. Leukoc. Biol. 2000). Stimulation of CD40 by CD154-expressing activated T cells, results in B cells activation, proliferation and isotype switching. The inventors employed B cells isolated from whole peripheral blood of healthy donors by gradient-Ficoll centrifugation and immunomagnetical separation (MACS systems—Milteniy). The quiescent B cells thereby obtained, were then stimulated with a soluble form of human recombinant CD154 (rhsCD154) to induce activation and expression of the co-stimulatory molecules CD80 (B7-1) and CD86 (B7-2) on the cell membrane. A drastic increase in membrane expression of CD80 and CD86 on the cell surface of peripheral B cells, after stimulation for 48 hours with rhsCD154 (100 ng/ml) was observed. […] In contrast, pre-incubation for 15 minutes at 37° C. of rhsCD154 (100 ng/ml) with peptide 4.10 (SEQ. ID NO: 6), prior to lymphocyte stimulation, blocked B cells stimulation and the related expression of CD80 and CD86. […] The results are the mean±standard deviation of five different experiments. Similar results were also obtained with B cells isolated from human spleen fragments. […]

[3] = test system: control J558 cells (CD154-negative); experiment: Binding to control CD154-negative J558 cells by flow cytometry; set-up: species or system murine; settings: -His6 peptides
[4] = biological target: T1, human CD154 expressed on the surface of J558L cells (Homo sapiens, UniProt P29965); experiment: Binding of -His6-tagged peptides to J558L CD154+ cells by flow cytometry; settings: -His6 peptides 60 μM, 30 minutes at room temperature
T1 construct: expressed in transfected cells; host or cells: J558L murine myeloma cell line transfected with human CD154
T1 sequence (P29965 1-261): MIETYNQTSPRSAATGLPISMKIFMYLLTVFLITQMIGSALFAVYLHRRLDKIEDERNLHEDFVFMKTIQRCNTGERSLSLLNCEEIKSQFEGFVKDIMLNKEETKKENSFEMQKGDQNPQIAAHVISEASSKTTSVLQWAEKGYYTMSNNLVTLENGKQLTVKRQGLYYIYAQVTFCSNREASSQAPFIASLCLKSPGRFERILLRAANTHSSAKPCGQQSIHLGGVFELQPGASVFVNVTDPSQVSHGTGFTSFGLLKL
Procedure: FIG. 2 represents the binding of the seven peptides obtained from the human CD154-binding clones and tagged with a 6 histidines tail (-His6) to the J558L CD154^+ cells. […] The cells were incubated with each of the -His6-tagged peptides and then with a phycoerythrin-conjugated secondary antibody specific for the -His6 tail. The dotted histogram is the isotopic control, whilst the black line is the binding intensity of the CD154-specific peptides [4.2=4.3=CPSGHTKAC (SEQ ID NO: 1), 4.4=CGTHSSRIC (SEQ ID NO: 2), 4.6=CLGTQNKEC (SEQ ID NO: 3), 4.7=4.12=CTPGKPHSC (SEQ ID NO: 4), 4.8=CKAASANIC (SEQ ID NO: 5), 4.10=CLPTRHMAC (SEQ ID NO: 6) and 4.11=CLSAVHNMC (SEQ ID NO: 7)]. For each experimental condition, 10,000 events were analyzed and the values are the mean and standard deviation of 3 different experiments.
(§1) The peptides were synthesized and conjugated with biotin (-bio) or with a 6-histidine tail (-his6) so as to enable in vitro and in vivo localization. […] Furthermore, a competition assay between the peptides and an anti-human CD154 fluorescein-conjugated antibody (Serotec) specifically recognizing the active site of CD154 was carried out. The J558L cells were incubated with the his6-peptides for 30 minutes at room temperature and then with anti-human CD154 fluorescein-conjugated antibody for another 30 minutes at room temperature. […]

HUVEC [5] = experiment: In vitro angiogenesis: cell cord formation of HUVECs on Matrigel; assay type: cell-based, human; settings: pre-incubated with rhsCD154 100 ng/ml for 15 minutes at 37° C.; 4 hours
Source text: FIGS. 7B-F show representative images of cell cord formation ability on Matrigel under the various experimental conditions mentioned above (B=unstimulated control; C=rhsCD154; D=rhsCD154+ 4.10 peptide; E=rhsCD154+ 4.10-ala peptide; F=rhsCD154+ blocking anti-CD154 antibody). Peptide 4.10 of the invention (SEQ ID NO: 6), contrary to control peptide 4.10-ala (SEQ ID NO: 8), inhibits the rhsCD154-induced ability of the endothelial cells of forming cell cords.
Furthermore, in order to evaluate the inhibitory effect, rhsCD154 (100 ng/ml) was pre-incubated for 15 minutes at 37° C. with peptide 4.10 (SEQ. ID NO: 6), or with control peptide 4.10-ala (SEQ. ID NO: 8), or with a blocking anti-human CD154 antibody. The flasks were then observed at 10× magnification for a period of 4 hours under a phase contrast inverted microscope equipped with a thermostatic chamber (at about 37° C.). The cells were photographed with a camera connected to the microscope, over the whole length of time of 4 hours at regular intervals of 15 minutes each. The migratory speed of each of the cells was calculated based on the position of the nucleus of each single cell in each single frame, using an image analysis software and, as a result, the average cell migratory speed (1 standard deviation) was calculated for each experimental condition. […]

CLL cells = experiment: Survival of CLL cells cultured with IL-4; assay type: cell-based, human; settings: cultivation in the presence of IL-4
naive B cells = experiment: Isotype switching of naive B cells induced by IL-4 and rhsCD154; assay type: cell-based, human; settings: IL-4 0.4 ng/ml and rhsCD154 100 ng/ml in combination with inhibitor
Procedure: The graphics of FIG. 5A show the percentage of naive B cells undergoing isotype switching and expressing IgG, under basal condition with no stimulation, after stimulation for 72 hours with IL4 and CD154, […] anti-human CD154 antibody, […] 4.10 (SEQ ID NO: 6), respectively. Peptide 4.10 (SEQ ID NO: 6), just as the anti-CD154 antibody, is capable of strongly inhibiting the isotype switching of immunoglobulins induced by stimulation with rhsCD154 and IL4.
B cells are known to constitutively express the CD40 molecule on the cells membrane (van Kooten C. et al, J. Leukoc. Biol. 2000). Stimulation of CD40 by CD154-expressing activated T cells, results in B cells activation, proliferation and isotype switching. The inventors employed B cells isolated from whole peripheral blood of healthy donors by gradient-Ficoll centrifugation and immunomagnetical separation (MACS systems—Milteniy). The quiescent B cells thereby obtained, were then stimulated with a soluble form of human recombinant CD154 (rhsCD154) to induce activation and expression of the co-stimulatory molecules CD80 (B7-1) and CD86 (B7-2) on the cell membrane. A drastic increase in membrane expression of CD80 and CD86 on the cell surface of peripheral B cells, after stimulation for 48 hours with rhsCD154 (100 ng/ml) was observed. […]

[6] = biological target: T2, active site of human CD154 (Homo sapiens, UniProt P29965); experiment: Competition with anti-human CD154 fluorescein-conjugated antibody on J558L cells; assay type: binding; settings: -His6 peptides 30 minutes at room temperature, then antibody
T2 construct: expressed in transfected cells; host or cells: J558L murine myeloma cell line transfected with human CD154
T2 sequence (P29965 1-261): T1 sequence (P29965 1-261)
Procedure: The murine myeloma cells transfected with human CD154, J558L, were incubated with each of the seven anti-CD154 peptides tagged with a 6 histidines tail (-His6), and then with the anti-CD154 fluorescein-conjugated antibody. The ability of the peptides to compete with the anti-CD154 antibody for the binding to the CD154 molecule expressed on the surface of the J558L cells was evaluated by flow cytometry, as the reduction in the fluorescence intensity compared to the positive control represented by cells incubated with the anti-human CD154 fluorescein-conjugated antibody alone. […] The amino acid sequence of the control peptide differs from that of peptide 4.10 in that an arginine residue is replaced with an alanine residue at amino acid position 5.
as §1

HUVEC [7] = experiment: rhsCD154-induced HUVEC motility (time-lapse migration); assay type: cell-based, human; settings: pre-incubated with rhsCD154 100 ng/ml for 15 minutes at 37° C.
Procedure: Peptide 4.10 (SEQ ID NO: 6), contrary to control peptide 4.10-ala (SEQ ID NO: 8), inhibits the rhsCD154-induced motility of endothelial cells.
It is known that an inflammatory process, once triggered, can be preserved by cells outside the immune system expressing particular receptors or lymphocyte co-stimulatory molecules, such as CD40 and its ligand CD154, such as e.g. endothelial cells from the vascular wall. […] In particular, the cell migration experiments were carried out with HUVEC cells plated on gelatin at a density of 4×10^3 in complete endothelial cell medium in the presence of 20% serum. The following day, the endothelial medium was replaced with low glucose DMEM (Sigma) with a reduced serum concentration (5%), in the presence or absence of rhsCD154 (100 ng/ml).
Furthermore, in order to evaluate the inhibitory effect, rhsCD154 (100 ng/ml) was pre-incubated for 15 minutes at 37° C. with peptide 4.10 (SEQ. ID NO: 6), or with control peptide 4.10-ala (SEQ. ID NO: 8), or with a blocking anti-human CD154 antibody. […] The migratory speed of each of the cells was calculated based on the position of the nucleus of each single cell in each single frame, using an image analysis software and, as a result, the average cell migratory speed (1 standard deviation) was calculated for each experimental condition. […]

[8] = peptide 60 μM pre-incubated 15 minutes at 37° C. with rhsCD154 100 ng/ml, B cells 48 hours

CSCC[C@@H]1NC(=O)[C@H](Cc2c[nH]cn2)NC(=O)[C@H](CCCNC(=N)N)NC(=O)[C@H]([C@@H](C)O)NC(=O)[C@@H]2CCCN2C(=O)[C@H](CC(C)C)NC(=O)[C@@H](N)CSSC[C@@H](C(=O)O)NC(=O)[C@H](C)NC1=O [peptide 4.10, CLPTRHMAC] (H-CLPTRHMAC-OH; disulfide 1-9)
rhsCD154-induced angiogenesis in Matrigel plugs [1]: significantly inhibited or completely absent | inhibition of rhsCD154-induced B cell activation (CD80 and CD86 expression) ([2]; 30 μM): possible to observe such an effect even at lower concentrations | expression of CD80 compared to basal levels [2, 8]: 107% | expression of CD86 compared to basal levels [2, 8]: 130% | binding to control J558 cells [3]: not capable of binding | binding to J558L CD154+ cells [4]: capable of specifically binding | effect on rhsCD154-induced formation of vessel-like cell cords on Matrigel (HUVEC [5]): completely abrogated stimulation | survival of CLL cells (CLL cells): capable of inhibiting CLL tumor cell survival | isotype switching of naive B cells (membrane IgG) (naive B cells): only a very low proportion of B cells | competition with anti-human CD154 fluorescein-conjugated antibody specific for the active site of CD154 [6]: the only one which is capable of significantly inhibiting the interaction | effect on rhsCD154-induced motility of HUVEC (HUVEC [7]): drastically reduced the motility of the cells down to basal levels
